Test results from patent US20220144915A1, “STABILIZATION OF PRANDIAL OR BASAL INSULIN ANALOGUES BY AN INTERNAL DISELENIDE BRIDGE” (THE TRUSTEES OF INDIANA UNIVERSITY, priority 2019, published 2022).
At least one peptide structure holds a part that was inferred or is arguable (an end, a ring closure or a residue). Bridges are numbered along the chain shown (N, C = ends). Where no end group is shown, it is not given here. [ ]: non-standard residue; d: D form. Sec = N[C@@H](C[SeH])C(=O)O

Tested on: insulin receptor and AKT kinase in MCF-7 breast-cancer cells
Experiment: Western blots of insulin receptor autophosphorylation (p-IR/IR) and AKT phosphorylation (p-Akt/Akt) in MCF-7 cells
Type: cell-based, human
Conditions: Western blot

FVNQHLCGSHLVEALYLVCGERGFFYTKGIVEQ[Sec]CTSI[Sec]SLYQLENYCN (disulfide 7-35, 19-48; diselenide 34-39) [[C6U, C11U]-modified Des-Di]
stimulatory activities (IR autophosphorylation and AKT phosphorylation): indistinguishable
